For 17 compounds, AC50 results are on record in PubChem BioAssay AID493014 (National Center for Advancing Translational Sciences (NCATS), 2011).

The list shows a part of the results. These are further read-outs of the screen, such as a control signal, another cell line or another target. No call is given for them. Compounds called inactive in the main read-out are mostly missing here. Potencies come from curve fits of mixed quality, noted in brackets.

The nature of this test: qHTS Assay to Find Inhibitors of Chronic Active B-Cell Receptor Signaling. To be noted: ABC-DLBCL IkBa-CBG/CBR reporter, luminescence ratio (green luciferase fused to IkBa over red control in TMD8 lymphoma cells), 4 h; measured here: CBR red luminescence, cell number. An outline of the steps: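 Compounds up to 46 uM were incubated four hours with TMD8 cells whose green CBG68 luciferase is fused to IkappaBalpha; red CBR luminescence normalised the signal, and concentration-effect curves were fitted to fusion, red and ratio data.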
In general terms: qHTS replaces the single test concentration by a dilution series.
In general, AC50 refers to the concentration giving half of the maximal activity seen. As for `CCOc1cc(/C=N\NC(=O)c2c(C)nc3ccccn23)ccc1O`, the AC50 is 35.5 µM [falling, single point]. The figure for `CCCOC(=O)CC1C(=O)NCCN1Cc1ccc(F)cc1` (configuration not stated) is 2.06 µM [falling, partial curve, poor fit]; for `Cc1[nH]nc(N=CC2=C(O)CC(c3ccco3)CC2=O)c1-c1ccc(Cl)cc1` (configuration not stated) it is 0.731 µM [falling, full curve, poor fit]. The same measure for `CC(C)(C)n1nc2c(c1NC(=O)COc1ccc(Cl)cc1)CSC2`: 2.51 µM [rising, partial curve, poor fit]; for `O=C(N/N=C/C1CC2CCC1C2)c1ccc2c(c1)OCO2` (configuration not stated): 9.2 µM [falling, partial curve]. The figure for `CC(C)OC(=O)C1=C(N)N2C(=O)CSC2=C(C(=O)OC(C)C)C1` is 15.8 µM [falling, partial curve, poor fit]; for `COc1ccc(CCNC(=O)C2CCCN2S(=O)(=O)c2ccc(F)cc2)cc1OC` (configuration not stated) it is 10 µM [rising, partial curve, poor fit]. Take `Cc1ccc(NC(=S)N(CCN2CCOCC2)Cc2cc3cc4c(cc3[nH]c2=O)OCO4)cc1`: the half-maximal activity concentration (AC50) was 3.16 µM [rising, full curve, poor fit]. On to `CCN(CC)S(=O)(=O)c1cc(NC(=O)c2ccc(Br)s2)ccc1C`, for which the AC50 is 4.47 µM [falling, full curve]. The figure for `COc1ccc2c(c1)c1ncn(CCc3ccccc3)c(=O)c1n2C` is 16.4 µM [falling, single point]; for `Cc1nc(C)n(C(C)CNS(=O)(=O)c2ccc(C)c(C)c2)n1` (configuration not stated) it is 35.5 µM [falling, single point]; for `Cn1c2ccccc2c2cc(/C=N/NC(=O)c3cc(O)cc(O)c3)ccc21` it is 25.1 µM [falling, single point]. The figure for `CCOc1ccccc1NC(=S)NC(=O)CCCOc1ccc(Cl)cc1Cl` is 29.1 µM [rising, single point]; for `CCc1ccc(NC(=O)CSc2nnc(CC)c(CC)n2)cc1` it is 23.1 µM [rising, single point].

`O=C(CN1C(=O)S/C(=C\c2ccc(F)cc2)C1=O)Nc1cccc(S(=O)(=O)NCc2ccco2)c1`: the AC50 was 1.26 µM [falling, partial curve, poor fit]. On to `C=CCn1c(SCc2csc(C)n2)nc2sc3c(c2c1=O)CCCC3`, for which the AC50 is 0.461 µM [rising, full curve, poor fit]. The figure for `COc1cc(/C=C/c2ccc3cccc(OC)c3n2)c(OC(C)=O)c([N+](=O)[O-])c1` is 5.8 µM [falling, partial curve].
